Data published in article PMC6929984.
These are yes or no findings as the source states them, for the method shown. Binding seen in cells or lysates may run through a third protein. Binding calls can cover weak binding; strength is not graded here. Blank lines part the entries; values can stand above or below the substance they belong to.

By UniProt entry, the sequences of proteins in these tests, tags left out. Where a name states a change or a piece, a line headed by the entry shows the natural chain unless it says otherwise.
UniProt P43694: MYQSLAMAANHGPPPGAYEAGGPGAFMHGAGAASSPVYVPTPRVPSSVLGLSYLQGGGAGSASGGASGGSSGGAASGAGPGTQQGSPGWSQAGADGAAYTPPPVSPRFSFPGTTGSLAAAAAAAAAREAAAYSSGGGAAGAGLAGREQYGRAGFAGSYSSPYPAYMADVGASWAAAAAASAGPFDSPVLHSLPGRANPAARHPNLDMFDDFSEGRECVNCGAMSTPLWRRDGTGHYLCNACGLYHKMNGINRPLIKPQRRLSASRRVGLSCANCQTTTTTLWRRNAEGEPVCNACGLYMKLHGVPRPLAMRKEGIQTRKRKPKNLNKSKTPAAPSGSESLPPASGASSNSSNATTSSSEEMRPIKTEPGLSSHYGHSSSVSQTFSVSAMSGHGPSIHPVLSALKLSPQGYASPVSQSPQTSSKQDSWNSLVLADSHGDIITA
UniProt P35222: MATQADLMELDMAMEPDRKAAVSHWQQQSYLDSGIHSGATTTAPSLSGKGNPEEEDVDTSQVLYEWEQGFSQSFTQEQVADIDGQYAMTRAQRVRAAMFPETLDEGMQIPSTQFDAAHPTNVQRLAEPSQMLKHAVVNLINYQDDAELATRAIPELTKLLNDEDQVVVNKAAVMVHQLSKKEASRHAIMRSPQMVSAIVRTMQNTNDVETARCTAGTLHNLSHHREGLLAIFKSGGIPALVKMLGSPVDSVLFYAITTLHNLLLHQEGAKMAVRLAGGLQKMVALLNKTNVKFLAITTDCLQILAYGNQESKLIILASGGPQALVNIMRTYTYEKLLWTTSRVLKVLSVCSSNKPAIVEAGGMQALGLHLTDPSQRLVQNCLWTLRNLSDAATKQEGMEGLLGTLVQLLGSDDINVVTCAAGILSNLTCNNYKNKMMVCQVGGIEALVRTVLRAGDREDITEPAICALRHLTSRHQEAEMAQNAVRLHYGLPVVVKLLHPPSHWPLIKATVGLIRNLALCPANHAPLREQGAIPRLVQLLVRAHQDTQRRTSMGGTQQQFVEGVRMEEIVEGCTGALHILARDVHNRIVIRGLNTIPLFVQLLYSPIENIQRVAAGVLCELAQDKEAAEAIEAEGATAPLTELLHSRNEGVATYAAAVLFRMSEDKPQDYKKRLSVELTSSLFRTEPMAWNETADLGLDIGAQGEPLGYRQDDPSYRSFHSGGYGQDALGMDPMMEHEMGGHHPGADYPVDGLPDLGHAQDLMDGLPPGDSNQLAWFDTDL
UniProt P36402: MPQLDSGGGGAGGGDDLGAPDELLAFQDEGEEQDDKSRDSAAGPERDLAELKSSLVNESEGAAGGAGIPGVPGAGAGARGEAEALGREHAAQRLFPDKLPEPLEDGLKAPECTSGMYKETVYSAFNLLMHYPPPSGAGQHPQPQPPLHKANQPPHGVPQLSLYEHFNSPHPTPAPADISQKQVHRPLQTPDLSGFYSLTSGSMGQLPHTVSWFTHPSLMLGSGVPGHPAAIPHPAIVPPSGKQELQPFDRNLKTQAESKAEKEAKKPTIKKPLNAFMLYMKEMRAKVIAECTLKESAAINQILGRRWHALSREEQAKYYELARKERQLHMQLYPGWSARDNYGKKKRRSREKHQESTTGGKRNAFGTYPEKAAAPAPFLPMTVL

Key:
[1] = target: Myc tagged GATA4 deleted of ZF1 (human) (UniProt P43694); experiment: co-IP; HEK293 cells (2×10^6) transfected with the indicated Myc- and FLAG-tagged plasmids (5 mg each (so in the source)); NP-40 lysis buffer; immunoblot (Figure 3E, 3F)
[2] = target: β-catenin-N-luciferase (human) (UniProt P35222); experiment: split reporter; split firefly luciferase (the paper: bimolecular fluorescence complementation assay): β-catenin-N-luciferase (0.1 mg as printed) with LEF1-C-luciferase or TCF1-C-luciferase, with or without GATA4; luciferase read 24 hours after transfection; HEK 293 cells in the legend, HepG2 in the text
[3] = target: FLAG tagged GATA4, C4A mutant of ZF1 (human) (UniProt P43694); experiment: co-IP; HEK293 cells (2×10^6) transfected with the indicated Myc- and FLAG-tagged plasmids (5 mg each (so in the source)); NP-40 lysis buffer; immunoblot (Figure 3E, 3F)

binding [1]: binds
Substance: FLAG tagged β-catenin (from UniProt P35222 1-781)

binding [2]: binds
Substance: TCF1-C-luciferase (from UniProt P36402)

binding [3]: binds
Substance: Myc tagged β-catenin (from UniProt P35222 1-781)
